These results are taken from the supplement of paper PMC6411743.

Protein sequences, listed by entry. Tags and fused reporters are not part of them. Lines headed by an entry give the natural chain unless they say otherwise; changes in a name come on top.
UniProt P78364: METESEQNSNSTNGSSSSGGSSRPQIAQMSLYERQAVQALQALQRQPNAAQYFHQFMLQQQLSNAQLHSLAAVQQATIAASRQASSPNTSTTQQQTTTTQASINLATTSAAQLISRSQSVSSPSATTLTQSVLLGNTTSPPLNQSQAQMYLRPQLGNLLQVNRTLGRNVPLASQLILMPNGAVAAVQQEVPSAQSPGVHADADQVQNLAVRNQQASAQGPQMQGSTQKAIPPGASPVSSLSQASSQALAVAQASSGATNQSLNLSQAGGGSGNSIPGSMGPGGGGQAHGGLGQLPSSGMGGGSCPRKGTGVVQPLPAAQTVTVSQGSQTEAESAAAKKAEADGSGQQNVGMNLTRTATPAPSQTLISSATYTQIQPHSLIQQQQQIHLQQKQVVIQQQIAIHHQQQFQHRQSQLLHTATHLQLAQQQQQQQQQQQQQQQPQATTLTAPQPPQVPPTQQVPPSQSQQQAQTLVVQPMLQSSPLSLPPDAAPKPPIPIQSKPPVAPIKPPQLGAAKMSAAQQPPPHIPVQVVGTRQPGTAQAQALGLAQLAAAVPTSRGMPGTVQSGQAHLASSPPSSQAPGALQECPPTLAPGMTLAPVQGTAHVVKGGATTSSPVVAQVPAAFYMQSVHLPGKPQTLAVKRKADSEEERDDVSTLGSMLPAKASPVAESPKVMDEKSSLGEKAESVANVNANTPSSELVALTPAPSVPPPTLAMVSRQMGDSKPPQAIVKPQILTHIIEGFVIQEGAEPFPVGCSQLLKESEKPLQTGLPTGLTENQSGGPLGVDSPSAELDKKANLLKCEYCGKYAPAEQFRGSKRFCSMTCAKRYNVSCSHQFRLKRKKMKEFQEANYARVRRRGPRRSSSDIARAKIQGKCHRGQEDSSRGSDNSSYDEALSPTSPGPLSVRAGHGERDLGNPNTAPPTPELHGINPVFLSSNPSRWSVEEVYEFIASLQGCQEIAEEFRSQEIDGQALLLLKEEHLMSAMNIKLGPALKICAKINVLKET
UniProt Q9Y5B0: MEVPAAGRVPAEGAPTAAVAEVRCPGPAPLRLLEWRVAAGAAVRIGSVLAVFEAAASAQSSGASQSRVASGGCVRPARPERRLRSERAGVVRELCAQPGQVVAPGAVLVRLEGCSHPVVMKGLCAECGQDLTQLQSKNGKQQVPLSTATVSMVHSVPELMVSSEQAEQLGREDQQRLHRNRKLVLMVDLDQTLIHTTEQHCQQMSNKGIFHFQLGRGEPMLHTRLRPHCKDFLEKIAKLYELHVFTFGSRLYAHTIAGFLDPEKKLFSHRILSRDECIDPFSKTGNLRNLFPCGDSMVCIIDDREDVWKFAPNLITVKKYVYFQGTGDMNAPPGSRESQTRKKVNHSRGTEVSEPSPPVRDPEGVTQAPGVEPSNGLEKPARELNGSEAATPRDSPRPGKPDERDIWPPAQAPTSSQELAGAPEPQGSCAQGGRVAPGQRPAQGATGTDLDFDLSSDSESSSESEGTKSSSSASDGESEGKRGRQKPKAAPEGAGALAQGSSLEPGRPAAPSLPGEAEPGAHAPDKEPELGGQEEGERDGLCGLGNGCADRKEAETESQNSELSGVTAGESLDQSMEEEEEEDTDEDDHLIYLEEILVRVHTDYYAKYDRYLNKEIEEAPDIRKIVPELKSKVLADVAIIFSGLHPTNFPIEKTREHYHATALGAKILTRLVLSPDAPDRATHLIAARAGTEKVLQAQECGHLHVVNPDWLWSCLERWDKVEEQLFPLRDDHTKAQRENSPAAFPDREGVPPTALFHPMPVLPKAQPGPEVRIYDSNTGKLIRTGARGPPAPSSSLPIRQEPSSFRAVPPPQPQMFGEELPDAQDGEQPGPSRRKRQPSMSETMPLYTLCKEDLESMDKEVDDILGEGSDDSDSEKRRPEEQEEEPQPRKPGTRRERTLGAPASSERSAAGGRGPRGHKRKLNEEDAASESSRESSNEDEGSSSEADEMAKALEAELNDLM
UniProt Q8N1S5: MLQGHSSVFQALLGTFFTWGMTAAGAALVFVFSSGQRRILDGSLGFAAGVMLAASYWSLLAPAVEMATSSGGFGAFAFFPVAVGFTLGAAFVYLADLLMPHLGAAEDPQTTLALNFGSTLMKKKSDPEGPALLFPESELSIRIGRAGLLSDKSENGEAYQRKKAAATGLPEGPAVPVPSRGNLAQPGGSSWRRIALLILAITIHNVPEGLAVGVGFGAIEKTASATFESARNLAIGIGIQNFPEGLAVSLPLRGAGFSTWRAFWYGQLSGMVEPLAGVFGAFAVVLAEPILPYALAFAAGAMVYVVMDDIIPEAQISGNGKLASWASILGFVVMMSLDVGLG
UniProt Q9NTK5, whole entry, looked up: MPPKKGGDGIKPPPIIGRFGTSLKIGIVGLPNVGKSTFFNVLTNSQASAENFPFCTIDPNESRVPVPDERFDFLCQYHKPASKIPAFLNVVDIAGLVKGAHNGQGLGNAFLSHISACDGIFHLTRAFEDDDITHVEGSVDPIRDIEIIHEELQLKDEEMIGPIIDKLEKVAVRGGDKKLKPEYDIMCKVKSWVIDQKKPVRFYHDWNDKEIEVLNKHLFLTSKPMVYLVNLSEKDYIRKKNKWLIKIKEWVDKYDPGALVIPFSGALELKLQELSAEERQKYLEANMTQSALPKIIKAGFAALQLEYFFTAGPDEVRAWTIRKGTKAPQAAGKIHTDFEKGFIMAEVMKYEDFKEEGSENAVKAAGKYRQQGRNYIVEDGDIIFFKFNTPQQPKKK
UniProt O43707, whole entry: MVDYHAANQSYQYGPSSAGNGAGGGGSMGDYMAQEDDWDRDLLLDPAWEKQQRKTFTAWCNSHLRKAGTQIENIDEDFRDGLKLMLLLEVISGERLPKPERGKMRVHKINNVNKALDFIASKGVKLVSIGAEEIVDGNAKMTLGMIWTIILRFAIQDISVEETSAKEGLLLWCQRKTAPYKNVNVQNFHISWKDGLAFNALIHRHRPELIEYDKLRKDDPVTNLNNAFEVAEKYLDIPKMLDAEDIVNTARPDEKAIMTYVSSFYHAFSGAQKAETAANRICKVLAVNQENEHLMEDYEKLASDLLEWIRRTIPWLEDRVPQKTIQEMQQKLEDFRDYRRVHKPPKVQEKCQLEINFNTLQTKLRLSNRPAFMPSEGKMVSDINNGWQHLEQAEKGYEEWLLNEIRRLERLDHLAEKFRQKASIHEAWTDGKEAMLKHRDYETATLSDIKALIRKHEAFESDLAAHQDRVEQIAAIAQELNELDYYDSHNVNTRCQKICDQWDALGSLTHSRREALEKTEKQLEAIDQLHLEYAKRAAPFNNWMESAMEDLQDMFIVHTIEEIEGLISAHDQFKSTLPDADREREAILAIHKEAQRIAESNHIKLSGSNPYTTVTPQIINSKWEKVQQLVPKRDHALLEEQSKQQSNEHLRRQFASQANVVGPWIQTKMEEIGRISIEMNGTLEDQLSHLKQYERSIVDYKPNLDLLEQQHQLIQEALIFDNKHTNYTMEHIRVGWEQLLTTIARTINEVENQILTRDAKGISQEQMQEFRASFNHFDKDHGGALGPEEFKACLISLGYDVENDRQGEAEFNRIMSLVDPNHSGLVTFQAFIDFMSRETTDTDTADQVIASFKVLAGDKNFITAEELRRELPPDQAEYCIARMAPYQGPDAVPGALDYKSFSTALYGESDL
UniProt Q96ND0: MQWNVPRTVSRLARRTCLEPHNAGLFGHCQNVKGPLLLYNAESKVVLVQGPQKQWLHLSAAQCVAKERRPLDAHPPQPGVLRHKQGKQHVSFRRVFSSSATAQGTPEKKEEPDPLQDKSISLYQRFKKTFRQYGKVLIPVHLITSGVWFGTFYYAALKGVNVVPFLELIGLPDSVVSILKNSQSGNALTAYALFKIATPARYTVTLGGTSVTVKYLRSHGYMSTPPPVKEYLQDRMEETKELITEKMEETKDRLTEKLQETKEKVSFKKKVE
UniProt Q14CW9: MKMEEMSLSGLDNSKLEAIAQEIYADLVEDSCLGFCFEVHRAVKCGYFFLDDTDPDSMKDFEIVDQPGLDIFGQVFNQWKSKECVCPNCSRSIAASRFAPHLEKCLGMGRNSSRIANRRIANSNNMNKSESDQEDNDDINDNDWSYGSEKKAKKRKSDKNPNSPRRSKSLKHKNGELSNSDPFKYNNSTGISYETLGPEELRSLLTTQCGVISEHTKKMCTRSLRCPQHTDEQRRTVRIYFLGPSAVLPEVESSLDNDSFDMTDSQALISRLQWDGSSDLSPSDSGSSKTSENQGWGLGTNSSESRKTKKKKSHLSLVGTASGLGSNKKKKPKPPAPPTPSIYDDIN
UniProt Q9H079: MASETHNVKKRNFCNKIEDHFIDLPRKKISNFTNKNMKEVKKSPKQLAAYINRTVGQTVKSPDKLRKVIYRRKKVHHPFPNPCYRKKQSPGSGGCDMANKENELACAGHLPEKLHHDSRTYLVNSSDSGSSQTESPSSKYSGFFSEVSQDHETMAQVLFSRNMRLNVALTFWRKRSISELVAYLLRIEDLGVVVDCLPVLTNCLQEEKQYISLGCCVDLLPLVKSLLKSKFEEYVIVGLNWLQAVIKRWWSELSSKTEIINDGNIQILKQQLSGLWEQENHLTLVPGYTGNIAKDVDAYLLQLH
UniProt Q9UBQ5, whole entry: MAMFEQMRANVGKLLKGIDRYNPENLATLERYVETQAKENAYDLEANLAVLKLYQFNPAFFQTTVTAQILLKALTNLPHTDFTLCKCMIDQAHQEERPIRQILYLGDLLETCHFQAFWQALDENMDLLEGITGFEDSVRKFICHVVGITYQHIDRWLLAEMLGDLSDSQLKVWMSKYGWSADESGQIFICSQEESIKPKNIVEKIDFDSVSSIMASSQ
UniProt Q9UPN9: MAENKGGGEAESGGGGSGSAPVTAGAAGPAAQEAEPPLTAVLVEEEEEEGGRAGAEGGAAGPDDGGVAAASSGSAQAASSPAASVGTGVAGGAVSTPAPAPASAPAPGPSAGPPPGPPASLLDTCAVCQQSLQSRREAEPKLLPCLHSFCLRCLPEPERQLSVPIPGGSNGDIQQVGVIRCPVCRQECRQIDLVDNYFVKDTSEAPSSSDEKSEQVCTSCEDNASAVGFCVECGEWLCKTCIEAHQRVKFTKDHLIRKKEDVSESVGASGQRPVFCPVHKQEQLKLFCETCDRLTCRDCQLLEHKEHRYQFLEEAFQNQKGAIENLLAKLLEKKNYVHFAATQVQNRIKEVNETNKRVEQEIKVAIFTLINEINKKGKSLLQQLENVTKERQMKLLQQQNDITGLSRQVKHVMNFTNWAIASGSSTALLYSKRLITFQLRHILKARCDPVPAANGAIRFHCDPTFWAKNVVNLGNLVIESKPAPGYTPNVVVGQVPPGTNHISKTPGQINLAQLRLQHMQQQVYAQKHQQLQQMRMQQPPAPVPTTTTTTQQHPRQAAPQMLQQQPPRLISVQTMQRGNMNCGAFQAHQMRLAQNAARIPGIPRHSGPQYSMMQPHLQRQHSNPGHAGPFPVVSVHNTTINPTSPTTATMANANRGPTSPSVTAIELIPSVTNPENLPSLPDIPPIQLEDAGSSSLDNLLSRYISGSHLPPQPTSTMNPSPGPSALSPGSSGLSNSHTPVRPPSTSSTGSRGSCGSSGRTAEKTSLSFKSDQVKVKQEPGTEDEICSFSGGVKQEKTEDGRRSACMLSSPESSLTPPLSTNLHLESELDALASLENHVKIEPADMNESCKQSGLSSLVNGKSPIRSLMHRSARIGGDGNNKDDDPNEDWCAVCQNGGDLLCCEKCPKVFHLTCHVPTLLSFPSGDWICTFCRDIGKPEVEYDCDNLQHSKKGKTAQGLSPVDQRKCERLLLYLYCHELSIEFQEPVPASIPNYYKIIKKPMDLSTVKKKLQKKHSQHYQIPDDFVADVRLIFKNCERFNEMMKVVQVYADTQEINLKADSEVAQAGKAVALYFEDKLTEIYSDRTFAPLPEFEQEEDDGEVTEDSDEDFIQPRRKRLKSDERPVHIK
UniProt Q8NCH0: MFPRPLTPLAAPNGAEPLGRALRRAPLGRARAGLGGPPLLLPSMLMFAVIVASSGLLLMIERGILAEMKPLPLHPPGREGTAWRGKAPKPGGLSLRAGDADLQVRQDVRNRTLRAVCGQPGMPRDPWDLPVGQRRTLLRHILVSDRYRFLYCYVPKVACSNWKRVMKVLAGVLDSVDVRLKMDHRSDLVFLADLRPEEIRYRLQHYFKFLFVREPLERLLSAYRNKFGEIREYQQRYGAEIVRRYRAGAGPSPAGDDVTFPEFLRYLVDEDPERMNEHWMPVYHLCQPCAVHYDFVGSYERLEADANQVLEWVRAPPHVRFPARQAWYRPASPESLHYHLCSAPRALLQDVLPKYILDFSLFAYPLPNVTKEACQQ
UniProt O14734: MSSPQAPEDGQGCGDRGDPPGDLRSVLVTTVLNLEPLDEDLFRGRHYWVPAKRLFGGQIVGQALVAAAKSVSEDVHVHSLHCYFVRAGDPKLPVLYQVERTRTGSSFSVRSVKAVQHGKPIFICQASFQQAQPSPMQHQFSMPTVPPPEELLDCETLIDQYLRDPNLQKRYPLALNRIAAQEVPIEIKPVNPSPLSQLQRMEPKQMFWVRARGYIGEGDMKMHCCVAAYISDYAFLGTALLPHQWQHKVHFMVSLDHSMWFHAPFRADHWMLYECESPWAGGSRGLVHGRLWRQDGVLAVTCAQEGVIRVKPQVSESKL

Compound in the test: Nc1ncnc2c1ncn2[C@@H]1O[C@H](COP(=O)(O)OP(=O)(O)OP(=O)(O)O)[C@@H](O)[C@H]1O [adenosine triphosphate]
As to the kind of experiment: NP40-soluble protein abundance relative to vehicle (solubility fold change) (ratio); higher = more soluble protein in presence of ATP. The gist of the method: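 Jurkat crude lysate prepared with a Dounce homogeniser was treated at eight concentrations spanning 0.1 to 10 mM, 10 min at room temperature then 3 min at 37 °C. Solubilisation with 0.8% NP40 and benzonase and ultracentrifugation preceded TMT labelling of the supernatant for LC-MS/MS. Fold change against the detergent-processed vehicle was determined per replicate from vsn-normalised intensities, across three independent experiments.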

± gives the standard deviation of the averaged measurements. The list shows a part of the results, in another mix than the full data.

Turning to “J3KQH6 and related entries (UniProt P78364)”, the NP40-soluble protein abundance stood at 0.949 ± 0.032 (concentration: 1mM); 0.992 ± 0.084 (concentration: 2mM); 0.999 ± 0.026 (concentration: 4mM); 1.14 ± 0.13 (concentration: 6mM); 1.04 ± 0.045 (concentration: 8mM); 1.18 ± 0.043 (concentration: 10mM).
As to “K7EJD2 and related entries (UniProt Q9Y5B0)”, the NP40-soluble protein abundance came to 1 ± 0.033 (concentration: 1mM); 0.977 ± 0.023 (concentration: 2mM); 0.971 ± 0.058 (concentration: 4mM); 0.994 ± 0.048 (concentration: 6mM); 0.957 ± 0.04 (concentration: 8mM); 0.992 ± 0.035 (concentration: 10mM).
Regarding “H0YCP6 and related entries (UniProt Q5T3F8)”, the NP40-soluble protein abundance (concentration: 1mM) turned out to be 0.966 ± 0.048; the NP40-soluble protein abundance (concentration: 2mM) turned out to be 1.02 ± 0.073; the NP40-soluble protein abundance (concentration: 4mM) amounted to 0.962 ± 0.055; the NP40-soluble protein abundance (concentration: 6mM) amounted to 0.909 ± 0.075; the NP40-soluble protein abundance (concentration: 8mM) is 0.928 ± 0.035; the NP40-soluble protein abundance (concentration: 10mM) was 0.989 ± 0.085.
In the case of “J3QLB2 and related entries (UniProt Q8N1S5)”, the NP40-soluble protein abundance stood at 0.988 ± 0.06 (concentration: 1mM); 1.04 ± 0.07 (concentration: 2mM); 1.08 ± 0.038 (concentration: 4mM); 1.07 ± 0.12 (concentration: 6mM); 1 ± 0.035 (concentration: 8mM); 1.09 ± 0.075 (concentration: 10mM).
For “M0QY01 and related entries (UniProt Q9UBC2)”, the NP40-soluble protein abundance is, setting by setting: (concentration: 1mM) 0.932 ± 0.032; (concentration: 2mM) 0.9579 ± 0.0066; (concentration: 4mM) 0.932 ± 0.0096; (concentration: 6mM) 0.964 ± 0.022; (concentration: 8mM) 0.919 ± 0.019; (concentration: 10mM) 0.922 ± 0.033.
On to “H3BSM7 and related entries (UniProt Q96GQ5)”, for which the NP40-soluble protein abundance (concentration: 1mM) came out at 0.998 ± 0.051; the NP40-soluble protein abundance (concentration: 2mM) stood at 1 ± 0.073; the NP40-soluble protein abundance (concentration: 4mM) was determined as 0.997 ± 0.015; the NP40-soluble protein abundance (concentration: 6mM) worked out at 0.959 ± 0.07; the NP40-soluble protein abundance (concentration: 8mM) was determined as 1.01 ± 0.069; the NP40-soluble protein abundance (concentration: 10mM) was found to be 1.02 ± 0.085.
Regarding “J3KQ32 and related entries (UniProt Q9NTK5)”, the NP40-soluble protein abundance reads like this: (concentration: 1mM) 0.989 ± 0.094; (concentration: 2mM) 0.967 ± 0.08; (concentration: 4mM) 0.94 ± 0.078; (concentration: 6mM) 0.945 ± 0.1; (concentration: 8mM) 0.965 ± 0.077; (concentration: 10mM) 0.953 ± 0.059.
In the case of “K7EJH8 and related entries (UniProt O43707)”, the NP40-soluble protein abundance is 0.841 ± 0.022 (concentration: 1mM); 0.824 ± 0.025 (concentration: 2mM); 0.814 ± 0.035 (concentration: 4mM); 0.883 ± 0.05 (concentration: 6mM); 0.87 ± 0.044 (concentration: 8mM); 0.903 ± 0.046 (concentration: 10mM).
In the case of “J3QRD1 and related entries (UniProt P51648)”, the NP40-soluble protein abundance (concentration: 1mM) is 1.03 ± 0.17; the NP40-soluble protein abundance (concentration: 2mM) was determined as 1.01 ± 0.11; the NP40-soluble protein abundance (concentration: 4mM) was 1 ± 0.082; the NP40-soluble protein abundance (concentration: 6mM) amounted to 0.904 ± 0.12; the NP40-soluble protein abundance (concentration: 8mM) came to 1.02 ± 0.018; the NP40-soluble protein abundance (concentration: 10mM) worked out at 1 ± 0.063.
Consider “J3KP75 and related entries (UniProt O75167)”, for which the NP40-soluble protein abundance is, setting by setting: (concentration: 1mM) 0.928 ± 0.07; (concentration: 2mM) 0.964 ± 0.035; (concentration: 4mM) 0.971 ± 0.058; (concentration: 6mM) 0.985 ± 0.034; (concentration: 8mM) 0.936 ± 0.026; (concentration: 10mM) 0.981 ± 0.081.
With “H0Y9Z5 and related entries (UniProt Q96LI5)”, the NP40-soluble protein abundance was determined as 1.2194 ± 0.00086 (concentration: 1mM); 1.2 ± 0.023 (concentration: 2mM); 1.27 ± 0.15 (concentration: 4mM); 1.14 ± 0.14 (concentration: 6mM); 1.3 ± 0.066 (concentration: 8mM); 1.3 ± 0.13 (concentration: 10mM).
“K7EIY4 and related entries (UniProt O60499)”: the NP40-soluble protein abundance by setting is: (concentration: 1mM) 0.931 ± 0.04; (concentration: 2mM) 0.9751 ± 0.0073; (concentration: 4mM) 0.9979 ± 0.008; (concentration: 6mM) 1.06 ± 0.089; (concentration: 8mM) 0.959 ± 0.024; (concentration: 10mM) 0.916 ± 0.056.
Regarding “K7EK00 and related entries (UniProt Q96ND0)”, the NP40-soluble protein abundance reads like this: (concentration: 1mM) 0.901 ± 0.042; (concentration: 2mM) 0.923 ± 0.026; (concentration: 4mM) 0.873 ± 0.034; (concentration: 6mM) 0.917 ± 0.032; (concentration: 8mM) 0.855 ± 0.024; (concentration: 10mM) 0.907 ± 0.036.
As to “K7EKG9 and related entries (UniProt Q14CW9)”, the NP40-soluble protein abundance reads like this: (concentration: 1mM) 0.969 ± 0.096; (concentration: 2mM) 1.08 ± 0.052; (concentration: 4mM) 1.07 ± 0.15; (concentration: 6mM) 1.14 ± 0.082; (concentration: 8mM) 1.07 ± 0.047; (concentration: 10mM) 1.16 ± 0.17.
As to “H0YAH3 and related entries (UniProt Q86SF2)”, the NP40-soluble protein abundance is 1.05 ± 0.052 (concentration: 1mM); 1.02 ± 0.052 (concentration: 2mM); 1.03 ± 0.075 (concentration: 4mM); 0.976 ± 0.092 (concentration: 6mM); 1.05 ± 0.024 (concentration: 8mM); 0.99 ± 0.065 (concentration: 10mM).
“H0YKW3 and related entries (UniProt Q9H079)”: the NP40-soluble protein abundance is, setting by setting: (concentration: 1mM) 0.987 ± 0.19; (concentration: 2mM) 0.991 ± 0.17; (concentration: 4mM) 0.961 ± 0.12; (concentration: 6mM) 0.978 ± 0.2; (concentration: 8mM) 1.05 ± 0.023; (concentration: 10mM) 1.02 ± 0.027.
Consider “K7ERF1 and related entries (UniProt Q9UBQ5)”, for which the NP40-soluble protein abundance runs as follows: (concentration: 1mM) 1.01 ± 0.043; (concentration: 2mM) 1.03 ± 0.038; (concentration: 4mM) 1.06 ± 0.039; (concentration: 6mM) 1.21 ± 0.074; (concentration: 8mM) 1.27 ± 0.08; (concentration: 10mM) 1.34 ± 0.13.
For “H0Y612 and related entries (UniProt Q9UPN9)”, the NP40-soluble protein abundance (concentration: 1mM) amounted to 0.999 ± 0.026; the NP40-soluble protein abundance (concentration: 2mM) is 1.01 ± 0.037; the NP40-soluble protein abundance (concentration: 4mM) is 0.999 ± 0.031; the NP40-soluble protein abundance (concentration: 6mM) stood at 1.03 ± 0.049; the NP40-soluble protein abundance (concentration: 8mM) was 1.01 ± 0.022; the NP40-soluble protein abundance (concentration: 10mM) stood at 1.03 ± 0.023.
For “J3KPP0 and related entries (UniProt Q9Y6G3)”, the NP40-soluble protein abundance runs as follows: (concentration: 1mM) 1 ± 0.068; (concentration: 2mM) 0.918 ± 0.11; (concentration: 4mM) 0.964 ± 0.12; (concentration: 6mM) 0.947 ± 0.15; (concentration: 8mM) 0.862 ± 0.1; (concentration: 10mM) 0.841 ± 0.18.
As to “H0YN65 and related entries (UniProt Q8NCH0)”, the NP40-soluble protein abundance was found to be 0.905 ± 0.067 (concentration: 1mM); 0.946 ± 0.16 (concentration: 2mM); 0.909 ± 0.12 (concentration: 4mM); 0.919 ± 0.15 (concentration: 6mM); 0.982 ± 0.14 (concentration: 8mM); 0.994 ± 0.11 (concentration: 10mM).
In the case of “H0YDS9 and related entries (UniProt P49321)”, the NP40-soluble protein abundance by setting is: (concentration: 1mM) 0.918 ± 0.082; (concentration: 2mM) 0.904 ± 0.047; (concentration: 4mM) 0.873 ± 0.04; (concentration: 6mM) 0.946 ± 0.053; (concentration: 8mM) 0.8728 ± 0.0076; (concentration: 10mM) 0.844 ± 0.049.
Regarding “H7BZB3 and related entries (UniProt P27708)”, the NP40-soluble protein abundance (concentration: 1mM) came to 1.03 ± 0.064; the NP40-soluble protein abundance (concentration: 2mM) was found to be 0.968 ± 0.029; the NP40-soluble protein abundance (concentration: 4mM) was found to be 0.944 ± 0.042; the NP40-soluble protein abundance (concentration: 6mM) worked out at 0.891 ± 0.09; the NP40-soluble protein abundance (concentration: 8mM) turned out to be 0.984 ± 0.097; the NP40-soluble protein abundance (concentration: 10mM) was determined as 0.978 ± 0.094.
Consider “H7C5A7 and related entries (UniProt O14734)”, for which the NP40-soluble protein abundance reads like this: (concentration: 1mM) 0.971 ± 0.038; (concentration: 2mM) 0.972 ± 0.055; (concentration: 4mM) 1.01 ± 0.076; (concentration: 6mM) 0.923 ± 0.056; (concentration: 8mM) 0.941 ± 0.041; (concentration: 10mM) 0.982 ± 0.071.
